Measurements reported in PubChem BioAssay AID743121 (NCATS, 2013).

Assay: 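Genes whose silencing strengthens cell killing by camptothecin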 (primary screen)
Cells: MDA-MB-231 cells, a human breast cancer line
Knock-down reagent: single siRNA against human genes, 20 nM siRNA (0.8 pmol per well)
Timing: 120 h (drug added 48 h after transfection, read 72 h later)
Treatment: camptothecin 20 nM (about EC30) for 72 h; vehicle 0.1% DMSO in parallel plates
Detection: 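Cell viability by ATP luminescence (CellTiter-Glo) as % of non-targeting siRNA wells, and the log2 ratio of viability without drug over viability with camptothecin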
Direction: log2 vehicle/camptothecin viability: higher = stronger sensitisation to camptothecin; viability with camptothecin and viability without drug: higher = more viable cells
Active means: 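Each gene scored by redundant siRNA activity (RSA) over its individual siRNA ratios; a gene is called active at p < 0.001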
The whole screen tested about 26,000 reagents; below is an unselected part. Of all reagents, 167 (0.63%) got an active call. 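Calls are per gene from RSA p-values that are not deposited; an individual active-marked siRNA can sensitise only weakly.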 Entries without a mark were called inactive.

no.	gene	PubChem SID	log2 vehicle/camptothecin viability	viability with camptothecin (% of control)	viability without drug (% of control)
1	SMG1	SID164445273	0.411	59.2	78.7
2	SMG1	SID164445274	0.84	17.4	31.1
3	SMG1	SID164445277	-0.087	95.3	89.7
4	SMG1	SID164445281	0.326	55.5	69.5
5	LPA	SID164374103	-0.557	80.6	54.8
6	LPA	SID164374105	-0.343	31.9	25.2
7	LPA	SID164374106	-0.172	111	98.5
8	LPA	SID164374108	-0.0165	55.5	54.9
9	PLXND1	SID164445800	-0.156	108	97.2
10	PLXND1	SID164445801	-0.483	62.8	44.9
11	PLXND1	SID164445803	-0.389	84.5	64.5
12	PLXND1	SID164445804	-0.0364	50	48.8
13	SST	SID164389923	0.0463	23.2	24
14	SST	SID164389924	-0.209	105	90.9
15	SST	SID164389925	-0.204	101	88.1
16	SST	SID164389926	-0.0853	71.4	67.3

Copied from the list:
Under “log2 vehicle/camptothecin viability”, SMG1 [SID164445274] shows 0.84
Value of SST [SID164389926] under “viability with camptothecin (% of control)”: 71.4
Value of SMG1 [SID164445277] in “viability without drug (% of control)”: 89.7
Value for SMG1 [SID164445281] in “log2 vehicle/camptothecin viability”: 0.326

More reagents:
no.	gene	PubChem SID	log2 vehicle/camptothecin viability	viability with camptothecin (% of control)	viability without drug (% of control)
17	DGKB	SID164360972	0.448	29.2	39.9
18	DGKB	SID164360973	0.802	40.3	70.3
19	DGKB	SID164360976	0.344	26.8	34
20	DGKB	SID164360978	-0.0518	102	98
21	HTR1A	SID164370377	-0.0725	29.9	28.4
22	HTR1A	SID164370381	-0.491	102	72.4
23	HTR1A	SID164370382	-0.266	113	94.1
24	HTR1A	SID164370383	-0.107	48.5	45
25	CMA1	SID164358861	-0.12	87.5	80.5
26	CMA1	SID164358862	-0.14	77.7	70.5
27	CMA1	SID164358863	-0.141	92.1	83.5
28	MAS1	SID164374858	-0.196	119	104
29	MAS1	SID164374859	-0.387	77.9	59.6
30	MAS1	SID164374860	-0.358	56.3	43.9
31	MAS1	SID164374863	-0.322	110	88.1
